Measurements reported in article PMC12370185.
Some of the results follow. At the low end of the ranking, values are background and their order means little.

System: OCT4 + histone octamer
Test: Pioneer-seq (competitive nucleosome EMSA with sequencing)
Conditions: 10 mM Tris-Cl pH 7.5, 50 mM NaCl, 1 mM DTT, 0.25 mg/ml BSA, 2 mM MgCl2, 0.025% Nonidet P-40, 5% glycerol; 28 nM nucleosome library; 10 min on ice then 30 min …; high values mean tight binding; double strand, one strand shown

Row | Sequence | binding signal (log2 relative supershift)
1 | GATGGACCCTATACGCGGCAAAATCTGGGTGTGGAAGAACTGTTGAACAATAGGTTAGCTCTATGTTCTACAACAGACTGTCTCTCAAATGCAGAGTTCTGTGTGTTTATTGACTACTAGCGTCAGCTTCTGTGCAGCTGAGATACAAATTCAGCCCTAGGCTTTTATCCACAGATCTGAGAGGAGGAAGGCAGGCAGGCACCTGTAATTTGCCAGTCGGATAGTGTTCC | -0.258
2 | GATGGACCCTATACGCGGCGAAGACAGGGAAGAGAGGAGGGAGAGAAGGGTGACAGGGAGCTGGTTGAGGGAGGGGACACAGAGCAGGAGACAGAGGCCCCATGTGGATCAAAGGAGTGACAAGGGAGGGCCCATGCTCAGTGATATGAGAACAGCAAGAGGCAACAAACAAGATACAAAAGGATACACACTTCCATCCCATTCATGTACTGCCAGTCGGATAGTGTTCC | -0.974
3 | GATGGACCCTATACGCGGCTTGCAGTCATTCTGTCATGTCACCCACTGAGGAGACTGCACACAAACTGCTTGAGGACAGGAGCTGTGTTATGCACACCTTTTGTCACTCATGACAGCCTGTTAACACACTGCCAGACACATAGCCAGTGCTCAATTACACGGCTGAGTAGGACAGACCACACAGTTATTACCCCCTTTGAGCACACCATTTGCCAGTCGGATAGTGTTCC | -0.799
4 | GATGGACCCTATACGCGGCCTCCAACAGAAATCTCCACTCACAGGTGTCACAGCCCAAAGCTGTCTTTGTAATGGTGACCTCACCCTGGTATCACAGTGACTGTAAGGGAAAGAAAGCAGCTGCCACTTCCTGGTTCACTTTCAACACCAAGCTCTCCTGATTTTATGTGTTCATTCTTATTACTTTCTTTCCCTCTCACCCTACCATATTGCCAGTCGGATAGTGTTCC | -0.222
5 | GATGGACCCTATACGCGGCTTTGGATATTTTAAAACAAATCCAGGAAGAGAGCAATGTACAACACAAAGGGATGAATCACAAATGGCAGAATTTCAGACATGAGTCAGAGATATTTTGGGTGTAGACCTGCCCTGTGTCCTATAACCCTACCACCTACTCACCTCACATTTCTCATATGAACTGATTGTTCTCTTGTTCCCTTTTTTTGTTGCCAGTCGGATAGTGTTCC | -0.18
6 | GATGGACCCTATACGCGGCTCAGAACCAGATGCACAAAGAACAAACAAGTTTCCCAGCAGGACTCAAAATAGAAGGGATGGTGACTGCATGCCTTACCATTCGGGATCCTCTTCTTCCCGGAGAACTCCGCGCAGGCAGGTCTGTACCTGCTTAGAGGCAGCCTGTCTGTTGAGCAGCCCATCCTCAGTGAGGGACGATAAGAGACTGGGTGCCAGTCGGATAGTGTTCC | -1
7 | GATGGACCCTATACGCGGCCATGTTGAATGGGTGAACTGTATGGTATGTCATTATATTTCAAGAAGCCATTAAAAAAAAACAACAGAAAGCCTTGCTGCAACATGCCTGCACTTGCTCCTGCCACATTCAGGTGGTTCTGAGCTGAAGCCACAGACAGGTCTCCCTGGGTTAGAGGTGTTCCCTGCTGGTCAGATCATTTATGATTGGAATGCCAGTCGGATAGTGTTCC | -0.361
8 | GATGGACCCTATACGCGGCATGAACATTCATTCGGGTGGCTGTCTTTGGGTGAACACATGGATGCATTTCTGGTGGGGGTGGAGTTGCCCGGTCATAAGGTATGTGCATGTTCACCTTGAGTAGATACTGCATAGCAGCGCAGTCCACCCAAAGCGGGTAGACAAATTTGCAATGCCATTGGCAGTGTGATGGGAGACACAGAAAGAGAGTGCCAGTCGGATAGTGTTCC | -0.717
9 | GATGGACCCTATACGCGGCAACGTGAGGCAGGATGTTCATTTTCCTCTAGTAGCAGGTTCTGAGATAGTCTGTGTGTGATGTGCATGTGAATGAGTGGATGTGAGTGAGAATAGCAGGAGTGAGGGTAGGTTGCAGTTTTGATTACACGGGTGTAGACTGATTCTCTGAGGTCAGCTTTATGCACTGGGTTTTAACTTTGTGGAACCATATGCCAGTCGGATAGTGTTCC | -0.247
10 | GATGGACCCTATACGCGGCTGCCTTTTTGAGAAGTAGACATATGTACTGGAGGCAACCTAGCTTGGTGTGATGAGCAACAGATTGGAACACAGAGCAGCACTAGGTGTACAGTGTCAGGAAGTCCAACTCAGTGGGTGTTTGTTATGCACAAGGAACTTTGACAGGCATTATTGTGGGAGAGGGTGGTTGAGGTGGATATAAGCATGAATTGCCAGTCGGATAGTGTTCC | -0.123
11 | GATGGACCCTATACGCGGCTTCTGTCCTTGTTCCTCGTCCCATCTGGAGCATTTCCAATTCTGGTTTTGCGGAGCAGCAGGTCTGAGCTTGTCCGGCGAGGGTGGGAGTTGGTCCCGGCGGAGATCCAGTGGGAAGAGCCGGCGGCTGCCCGGGCGTGAGTAGACCGAGAATCCTGCCCGATCCCCGCCCCTGGGCTGGTGTCGCCCTGGTGCCAGTCGGATAGTGTTCC | -1.16
12 | GATGGACCCTATACGCGGCCAGGGTGAAAAGACTGGCCAGACATTTTCTGGAAAGAGGCAGGCTAAGCAGGAGCTTGGTAAACAAAAGCAGGAAATGGAGCGTTCAGAACATCCACAGACGTGTTCAGACATGCAGGCCCCTGCCGGGCTGCAGAGAGTATGACAATTCGGGCTTGTGTGGTGTGGAGGTACCCAATGGGATGGGACCCCTGCCAGTCGGATAGTGTTCC | -0.805
13 | GATGGACCCTATACGCGGCTCTAACAACAATTTATATGTGTATGTGCCAAGATAGGGGGGTGGGTTTCCTGAGGGCTGGAGACAGGACAGGTATGACCATGCACAGCCGCATTCTTTGGCAGAGAACACACATGATTCCCCCAAATATGTTTCTGGAAACGGAATTGAGTCTGTTCTGTGCTGAGATCTTTGACTTTCTTGAGGACAAAATGCCAGTCGGATAGTGTTCC | -0.536
14 | GATGGACCCTATACGCGGCCCCTCTTCTTCCAGTTCTTTGTTTCTCTAGTTTCTATAGTTACCCGTGCTGTAAACAACCCTTCCTGCCCTGACTGTTCCCTGACATGTCCTGACAAGTCTAGACAGGCCTTGCACCATAATGGATAGCCTTCCCCTTCCTGCCTAGATAGCTGTATTCAATTTCAAACATTAGCCAATCAGGTCAGTTTATGCCAGTCGGATAGTGTTCC | -0.375
15 | GATGGACCCTATACGCGGCGAGTGACTTAAGAATGTCAGAGAATAGCAAGGGAGTGGCAGAAACCCTGTGAAGCACAGGCTAAGTATGGCCATATACAGAAGGGTGGAGTCATTGTTGTGCTATTCCCTTCCCCAATGCCTAAGTCACAGCTGTGCCCCACCATTCATGGGCCCTTGTTGCTGCTGTACCCAGCCTCACAAAGTCTGGTCTGCCAGTCGGATAGTGTTCC | -0.536

Two entries from above, as a markdown table:

| Row | Sequence | binding signal (log2 relative supershift) |
| --- | --- | --- |
| 12 | GATGGACCCTATACGCGGCCAGGGTGAAAAGACTGGCCAGACATTTTCTGGAAAGAGGCAGGCTAAGCAGGAGCTTGGTAAACAAAAGCAGGAAATGGAGCGTTCAGAACATCCACAGACGTGTTCAGACATGCAGGCCCCTGCCGGGCTGCAGAGAGTATGACAATTCGGGCTTGTGTGGTGTGGAGGTACCCAATGGGATGGGACCCCTGCCAGTCGGATAGTGTTCC | -0.805 |
| 13 | GATGGACCCTATACGCGGCTCTAACAACAATTTATATGTGTATGTGCCAAGATAGGGGGGTGGGTTTCCTGAGGGCTGGAGACAGGACAGGTATGACCATGCACAGCCGCATTCTTTGGCAGAGAACACACATGATTCCCCCAAATATGTTTCTGGAAACGGAATTGAGTCTGTTCTGTGCTGAGATCTTTGACTTTCTTGAGGACAAAATGCCAGTCGGATAGTGTTCC | -0.536 |
